# Library screen at single concentrations

Source: ChEMBL document CHEMBL3988442, “University of Dundee, Small-Polar-MMV Screening Library” (2021).

Mtb glucose medium: 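Growth of Mycobacterium tuberculosis over 3 days (7H9 medium with glucose and tyloxapol); the read-out is not stated. Concentration: 500 µM. The record gives no direction; compounds that gave an IC50 in retests scored well above the rest, so higher reads as more growth inhibition. About 18,000 compounds were tested under these conditions; 7.9% (about 1,400) showed 50% or more at least once.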
Mtb cholesterol medium: 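Growth of Mycobacterium tuberculosis over 4 days (cholesterol / DPPC medium with tyloxapol); the read-out is not stated. Compounds at 500 µM. The record gives no direction; compounds that gave an IC50 in retests scored well above the rest, so higher reads as more growth inhibition. Size under these conditions: about 18,000 compounds, about 900 of them at 50% or above in at least one test.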

Results are given as percent effect.
How 0% and 100% were set is not recorded. Most values in the screen are low, and negative values occur.
Compounds were drawn at random from those tested, without regard to their results.

Compound	Mtb glucose medium	Mtb cholesterol medium
Cc1ccc(NC(=O)NC[C@@H]2C[C@H](F)CN2)cc1C#N	45.75%	17.28%
O=C(NC1COC2(CCNCC2)C1)c1cc[nH]n1 (configuration not stated)	-6.47%	-12.57%
NC(=O)C1CCOC1 (configuration not stated)	7.279%	6.312%
Nc1n[nH]c(SCc2cccnc2)n1	0.36%	-3.995%
CC(=O)N1CCN(CC(=O)NCc2cccs2)CC1	2.733%	-8.214%
COc1cc(NC(=O)N(C)CCN(C)C)ccc1F	18.74%	7.394%
CC(C)[C@@H](CO)NCc1ccc(F)c(C#N)c1	3.996%	4.97%
Cc1cc(C)c(CNC(=O)c2ccc(C)o2)c(=O)[nH]1	-0.6058%	-11.9%
Cc1nc(C(=O)NCC2(N(C)C)CCOCC2)cs1	-4.648%	0.03317%
CCOC(=O)c1nnn(-c2ccc(F)cc2)c1C	20.81%	16.35%
COc1cc(CNc2ncnc3c2cnn3C)ccn1	26.28%	14.2%
CNCC(=O)NCC1CCN(c2cnn(C)c(=O)c2)C1 (configuration not stated)	3.457%	6.625%
NC(CCO)c1ccccc1Br (configuration not stated)	6.628%	0.6868%
COCC(=O)NC1(C(=O)NCC2CC2)CCCC1	-8.38%	-5.575%
COc1ccc(CNCC2CCS(=O)(=O)C2)cc1Br (configuration not stated)	22.1%	14.63%
O=C(CCCOc1ccccc1)Nc1nnc[nH]1	10.53%	-3.765%
CCC(C)(CC)NC(=O)NC(C)CS(=O)(=O)CC (configuration not stated)	1.819%	-3.477%
Cc1noc(C)c1CC(=O)NC1CCc2nccn2C1 (configuration not stated)	-17.31%	25.41%
O=C(c1c[nH]nc1C1CCCCC1)N1CCOCC1	13.61%	13.4%
CC(NC(=O)CCCn1cccc1)c1cnn(C)c1 (configuration not stated)	-0.6145%	-13.28%
OCCCN1CCNCC1	-8%	-5.251%
CN(C)CCNC(=O)c1ccc2c(c1)NC(=O)CO2	7.48%	-6.226%
CCCC(CN)CCO (configuration not stated)	16.25%	13.19%
O=C(Nc1nc(C2CC2)cs1)C1CC12CCNCC2 (configuration not stated)	46.68%	25.86%
CN(Cn1nnc2ccccc2c1=O)C1CCCC1	17.41%	11.42%
CNC(=O)C1CCCCN1Cc1nccn1CCOC (configuration not stated)	8.315%	6.882%
N#CCSc1ccccc1C(=O)NC1CCS(=O)(=O)C1 (configuration not stated)	8.419%	-3.712%
COCC(O)CN(C)CCn1cc(Br)cn1 (configuration not stated)	-7.989%	-19.1%
CN(CC(=O)N1CC[C@H]2CNC[C@H]21)Cc1cccnc1	5.869%	14.05%
NC(=O)NC(=O)COC(=O)c1ccccc1Br	9.338%	5.386%
O=C(C1CC1)N1CCN(c2ccc(Br)cn2)CC1	7.318%	-7.767%
N[C@@H](C(=O)NCCc1cn[nH]c1)C1CCCCC1	2.752%	2.407%
CN(C)c1nc(Cl)c(CN)s1	-9.309%	-7.499%
CN1CCN(CCNS(=O)(=O)c2ccccc2)CC1	7.723%	16.97%
c1nc(CO[C@H]2CCOC[C@H]2NC2CCOCC2)cs1	-1.248%	3.491%
C1CC(C2CCN(C3CNC3)CC2)CN1 (configuration not stated)	13.79%	3.733%
CCC(CC)(NC(=O)c1noc2c1CCCC2)C(N)=O	16.81%	15.65%
CCC(=O)N1CCCN(C(=O)C2(N)CCCC2)CC1	-12.05%	-17.81%
Cc1cc(CNC(=O)N2CCC(CC(N)=O)CC2)no1	-12.92%	-12.51%
COc1ccc(OC)c(NC(=O)CNC(C)C)c1	33.1%	12.69%
CCCC1CCN(CC(=O)NCc2cccnc2)C1 (configuration not stated)	13.6%	18.3%
OCCC1CCCN1Cc1ccc2ccccc2n1 (configuration not stated)	15.87%	1.382%
COCCNCc1ccc(OCC(N)=O)c(OC)c1	1.902%	5.501%
Cn1cccc1C(=O)Nc1ccc(C(N)=O)cc1	27.08%	19.78%
COCCOC1CCN(C(=O)c2nccn2C)CC1	5.794%	9.247%
Cn1ccsc1=NC(=O)CNc1ccc(C#N)cc1	-6.622%	-11.82%
O=S(=O)(NCCCN1CCOCC1)C1CCCCC1	2.665%	0.8988%
CN1C(=O)Cc2cc(CN)ccc21	3.745%	44.11%
Cc1cnn(CCCNC(=O)CC2CSCCN2)c1 (configuration not stated)	15.68%	7.698%
CC(C)(C)C(=O)N1CCOCC1	-3.367%	-3.494%
CN(C(=O)CN1CCCC1=O)C1CCCC1	-19.24%	-21.58%
Cc1nn(C(C)C)c(C)c1NC(=O)C1CCCO1 (configuration not stated)	6.998%	-11.9%
COCCn1cc(CNC(=O)N2CCCC2)cn1	6.531%	-1.038%
CCc1cn[nH]c1C1CCNCC1	9.52%	3.131%
Cc1c[nH]c(C(C)NC(=O)c2ccccc2C#N)n1 (configuration not stated)	5.812%	-1.957%
CO[C@@H]1COCC[C@H]1NC(=O)CN(C)C1CCNCC1	2.414%	5.648%
CNCc1noc(C)n1	1.81%	-10.33%
COc1ccccc1C(N)C#N (configuration not stated)	29.72%	16.62%
O=C([C@@H]1C[C@@H](F)CN1)N1CCOCC1	6.769%	3.947%
CN(Cc1c(F)cccc1Cl)C(=O)CNC(=O)C1CC1	63.31%	55.69%
CN(C)S(=O)(=O)CCCS(=O)(=O)Cc1cccc(F)c1	4.11%	-0.0117%
O=C1C(NCc2ccco2)CCCN1c1cccnc1 (configuration not stated)	-0.8034%	-9.29%
COC(=O)C(O)C(C)(C)NC(=O)Nc1ccccn1 (configuration not stated)	9.226%	-0.5137%
COC[C@@H](O)CNC(=O)NC(C)Cc1cccc(Br)c1 (some centres not stated)	27.56%	10.37%
Cc1nc(CNC(=O)c2ccccc2)no1	5.577%	-2.554%
Cc1cc(NC(=O)Cn2cnc(C#N)n2)no1	15.22%	5.973%
CS(=O)(=O)N(CC(=O)N1CCCC1)c1ccc(Cl)cc1	26.75%	26.77%
CCCn1nc(C(=O)N2CCC2)c2ccccc2c1=O	26.44%	15.81%
Cc1n[nH]cc1CNC(CS(C)(=O)=O)c1ccccc1 (configuration not stated)	15.1%	5.113%
Cc1noc(C)c1CNC(=O)N(C)Cc1ccncc1	-1.427%	-9.472%
Cc1n[nH]c(SCCN)n1	-14.93%	-13.01%
CCCOc1cc(OC)ccc1C(N)=O	0.514%	-12.79%
c1ccc(N2CCN3CCCCC3C2)nc1 (configuration not stated)	26.4%	17.83%
O=C(Nc1nc2ccccc2[nH]1)C1CCCO1 (configuration not stated)	4.488%	2.179%
CCn1cc(C(=O)NCc2ccc(CNC)cc2)cn1	0.3784%	-1.448%